Several values for one entry are separate records, joined by “and”; a condition that tells them apart may be missing. Equal values may be shown once. The shares of active, inactive and inconclusive entries below differ from those in the screen. For some assays here: Potencies of inconclusive entries are doubtful fits and often do not repeat. The source holds several records for some structures; these can differ, active in one and inactive in another. Activity calls are given as the source filed them. The calls were made as follows: active = hit-call score of the fitted dose curve at least 0.9, where 1 is the maximum; inconclusive = response in the unintended direction; inactive = score below 0.9.
Assays:
[1] = biological target: Retinoic acid receptor RXR-alpha (Homo sapiens) (UniProt P19793); experiment: OT_NURR1_NURR1RXRa_0480: Odyssey Thera (OT) 8-hour HEK293T Protein Complementation Assay for Nurr1/retinoid X receptor (RXR) (AID 2283385)
Summary of the method: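 Gain in fluorescent complementation signal over DMSO, measured 8 hours after chemical dosing of human kidney HEK293T cells, indicated enhanced Nurr1–RXRα association.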

By UniProt entry, the sequences of proteins in these tests, tags left out. Where a name states a change or a piece, a line headed by the entry shows the natural chain unless it says otherwise.
UniProt P19793: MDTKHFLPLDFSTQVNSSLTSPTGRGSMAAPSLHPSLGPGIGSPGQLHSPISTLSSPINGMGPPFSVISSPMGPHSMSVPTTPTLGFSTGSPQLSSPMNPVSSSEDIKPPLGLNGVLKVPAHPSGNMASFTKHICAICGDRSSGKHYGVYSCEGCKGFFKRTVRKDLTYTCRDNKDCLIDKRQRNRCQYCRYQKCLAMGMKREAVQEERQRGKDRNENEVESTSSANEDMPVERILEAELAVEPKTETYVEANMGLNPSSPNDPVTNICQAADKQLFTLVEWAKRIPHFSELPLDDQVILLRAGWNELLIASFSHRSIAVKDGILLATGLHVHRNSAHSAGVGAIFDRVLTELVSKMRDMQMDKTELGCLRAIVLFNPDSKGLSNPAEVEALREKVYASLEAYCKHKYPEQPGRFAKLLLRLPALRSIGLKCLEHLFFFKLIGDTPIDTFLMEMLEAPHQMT
UniProt P04637, whole entry, looked up: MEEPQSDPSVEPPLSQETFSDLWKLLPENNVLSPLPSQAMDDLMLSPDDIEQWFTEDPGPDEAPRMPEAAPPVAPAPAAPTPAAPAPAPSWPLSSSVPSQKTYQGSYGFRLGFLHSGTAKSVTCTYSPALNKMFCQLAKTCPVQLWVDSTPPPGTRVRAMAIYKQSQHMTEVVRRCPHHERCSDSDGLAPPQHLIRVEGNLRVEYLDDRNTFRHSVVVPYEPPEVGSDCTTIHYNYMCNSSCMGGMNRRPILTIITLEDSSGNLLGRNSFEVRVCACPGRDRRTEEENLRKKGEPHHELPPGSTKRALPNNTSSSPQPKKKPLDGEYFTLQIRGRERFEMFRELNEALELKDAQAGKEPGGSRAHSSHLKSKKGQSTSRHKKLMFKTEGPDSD

[2] = biological target: Retinoic acid receptor RXR-alpha (Homo sapiens) (UniProt P19793); experiment: OT_NURR1_NURR1RXRa_1440: Odyssey Thera (OT) 24-hour HEK293T Protein Complementation Assay for Nurr1/retinoid X receptor (RXR) (AID 2283386)
Summary of the method: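 Cell-based binding reporter: HEK293T cells, 24 h exposure, fluorescence-detected fragment complementation, DMSO as baseline.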

[3] = TOX21_p53_BLA_p5_viability: Viability Assessment in the Tox21 HCT-116 p53 Agonism Beta-lactamase Assay, Phase 5 (AID 2283600)
Summary of the method: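 Viability is taken from cellular ATP content, measured by luciferase luminescence in the same wells after the beta-lactamase ratio read. Cells are seeded at 4000 per well and exposed to DMSO-dissolved compounds, diluted 217-fold, for 16 h.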

[4] = ATG_XTT_Cytotoxicity: Cytotoxicity Assessment in the Attagene TRANS-FACTORIAL HepG2 Assay (AID 2283584);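 as to AC50: XTT signal for cell number as viability in transfected HepG2 cells; cells exposed to compound for 24 h before reading; active means loss of viability signal versus DMSO baseline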
Summary of the method: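 Transfect HepG2 with GAL4-UAS reporter units, dose compound, incubate 24 h, then measure viable cell number by XTT. Fit concentration response against DMSO baseline.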

[5] = TOX21_p53_BLA_p2_viability: Viability Assessment in the Tox21 HCT-116 p53 Agonism Beta-lactamase Assay, Phase 2 (AID 2283591);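 also: compound exposure lasted 16 h at 37 °C; actives lower the ATP signal meaning cytotoxicity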
Summary of the method: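 HCT-116 p53-bla cells (4000/well) rested 5 h at 37C, then received compounds in DMSO (217-fold dilution) for 16 h at 37C, 5% CO2. After the CCF4 read, CellTiter-Glo was added; ATP luminescence was read after 30 min at room temperature.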

[6] = TOX21_p53_BLA_p3_viability: Viability Assessment in the Tox21 HCT-116 p53 Agonism Beta-lactamase Assay, Phase 3 (AID 2283593);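 also: cells exposed to compound for 16 h before reading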
Summary of the method: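 HCT-116 cells (4000/well) rested 5 h at 37C, then got DMSO compounds by pin tool (217-fold dilution) for 16 h at 37C, 5% CO2. After the bla read, CellTiter-Glo was added and luminescence read at 30 min, room temperature.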

[7] = biological target: Cellular tumor antigen p53 (Homo sapiens) (UniProt P04637); experiment: TOX21_p53_BLA_p4_ratio: Tox21 HCT-116 p53 Agonism Beta-lactamase Assay, Ratio, Phase 4 (AID 2283601)
Summary of the method: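 HCT116 cells carrying an inducible beta-lactamase reporter were plated at 4000 cells/well, rested 5 h, then exposed to compounds in DMSO (217-fold dilution) for 16 h at 37C. CCF4-AM substrate was loaded 2 h at room temperature; 460/530 nm emission ratio scored gain-of-signal versus DMSO.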

[8] = TOX21_p53_BLA_p4_viability: Viability Assessment in the Tox21 HCT-116 p53 Agonism Beta-lactamase Assay, Phase 4 (AID 2283597);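 also: hits lower the luminescence signal meaning cytotoxicity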
Summary of the method: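 Viability is taken as cellular ATP: after 16 h compound exposure of HCT116 cells and a 2 h room-temperature CCF4-AM substrate step, CellTiter-Glo reagent is added and luminescence is measured 30 min later.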

[9] = biological target: Cellular tumor antigen p53 (Homo sapiens) (UniProt P04637); experiment: TOX21_p53_BLA_p3_ratio: Tox21 HCT-116 p53 Agonism Beta-lactamase Assay, Ratio, Phase 3 (AID 2283596)
Summary of the method: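 Cells were seeded at 4000/well, rested 5 h at 37C, then dosed with DMSO compound solutions (217-fold dilution) for 16 h. CCF4-AM substrate was loaded for 2 h at room temperature, and the 460/530 nm emission ratio was fitted for gain of signal versus DMSO.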

[10] = biological target: Cellular tumor antigen p53 (Homo sapiens) (UniProt P04637); experiment: TOX21_p53_BLA_p2_ratio: Tox21 HCT-116 p53 Agonism Beta-lactamase Assay, Ratio, Phase 2 (AID 2283592)
Summary of the method: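 Cleaved-to-uncleaved substrate ratio (460 vs 530 nm) measured in HCT116 cells with an inducible beta-lactamase reporter linked to p53 activity. Compounds incubated 16 h at 37C before 2 h room-temperature CCF4-AM loading.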

[11] = biological target: Cellular tumor antigen p53 (Homo sapiens) (UniProt P04637); experiment: TOX21_p53_BLA_p5_ratio: Tox21 HCT-116 p53 Agonism Beta-lactamase Assay, Ratio, Phase 5 (AID 2283599)
Summary of the method: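 HCT-116 cells carrying a p53-inducible beta-lactamase reporter were seeded at 4000 cells/well and dosed after 5 h with compound in DMSO (217-fold dilution). After 16 h at 37C, CCF4-AM substrate was added for 2 h, and the 460/530 nm emission ratio was scored as gain-of-signal versus DMSO.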

[12] = Tanguay_ZF_120hpf_SNOU_legacy: (Legacy) Oregon State University Tanguay Lab 120 Hour Post-fertilization zebrafish Assay for Snout Malformation (AID 2283637)
Summary of the method: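 Dechorionated zebrafish, individually housed from 6 hpf in covered, sealed wells at 28C with 0.64% DMSO vehicle, were examined at 120 hpf for snout malformation. Responses were binary and analysed positive-direction relative to DMSO.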

[13] = Tanguay_ZF_120hpf_JAW_legacy: (Legacy) Oregon State University Tanguay Lab 120 Hour Post-fertilization zebrafish Assay for Jaw Malformation (AID 2283638)
Summary of the method: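 Static waterborne exposure of dechorionated wild-type (Tropical 5D) zebrafish from 6 to 120 hpf at 28C, 0.64% DMSO vehicle; 5uM trimethyltin chloride served as positive control. Jaw morphology recorded as binary at 120 hpf.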

[14] = LTEA_HepaRG_LDH_cytotoxicity: Cytotoxicity Assessment in the Life Technologies and Expression Analysis (LTEA) Assay (AID 2283563);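 also: LDH activity released into spent culture medium as a marker of cell death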
Summary of the method: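 Human HepaRG hepatic cells are treated with test chemicals for 48 h at up to 100 uM in 0.5% DMSO. Cytotoxicity is scored from medium LDH against the vehicle control.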

COCCOC[C@H](CC1(C(=O)NC2CCC(C(=O)O)CC2)CCCC1)C(=O)Oc1ccc2c(c1)CCC2 (stereo partly specified)
outcome [1]: inactive
outcome [2]: inactive
AC50 [3]: inconclusive: 11.5 µM

CCCCCCOCCO
AC50 [1]: inconclusive: 50 µM
AC50 [4]: inconclusive: 0.159 µM
AC50 [5]: inconclusive: 46.1 µM
AC50 [6]: inconclusive: 46.1 µM and inconclusive: 80 µM
AC50 [3]: inconclusive: 46.5 µM
AC50 [7]: inconclusive: 42 µM

c1c[nH]cn1
AC50 [1]: inconclusive: 0.859 µM
outcome [4]: inactive
AC50 [5]: inconclusive: 30.8 µM and inconclusive: 48.4 µM
AC50 [6]: inconclusive: 84.5 µM
outcome [6]: inactive
AC50 [8]: inconclusive: 46.1 µM and inconclusive: 48.4 µM
AC50 [3]: inconclusive: 46.1 µM and inconclusive: 48.4 µM

N#Cc1ccc(C2CCCc3cncn32)cc1 (stereo unspecified)
AC50 [1]: inconclusive: 19.2 µM
outcome [4]: inactive
AC50 [6]: inconclusive: 17.7 µM
AC50 [9]: inconclusive: 17.7 µM
AC50 [8]: inconclusive: 17.7 µM

CCCCCCCCOC(=O)c1ccc(O)cc1
AC50 [1]: active: 74.7 µM
AC50 [4]: active: 100 µM

CCCCCCCCCCOS(=O)(=O)O
outcome [1]: inactive
AC50 [2]: inconclusive: 49.8 µM
outcome [6]: inactive
AC50 [9]: inconclusive: 45.9 µM
AC50 [3]: inconclusive: 45.9 µM
AC50 [7]: inconclusive: 45.9 µM

CCN(CC)CCNc1ccc(CNC=O)c2sc3ccc(OC)cc3c(=O)c12
AC50 [1]: active: 11.4 µM and active: 11.9 µM
AC50 [2]: active: 11.7 µM and active: 11.8 µM
AC50 [9]: active: 18.7 µM
AC50 [11]: active: 29 µM
outcome [3]: inactive
AC50 [7]: active: 12.1 µM
AC50 [12]: inconclusive: 3.8 µM

CC(C)CCCCCCc1ccc(OCCOCCO)cc1
AC50 [1]: inconclusive: 25 µM
AC50 [4]: inconclusive: 50 µM
AC50 [5]: inconclusive: 74.7 µM
AC50 [10]: inconclusive: 74.7 µM
outcome [9]: inactive

O=C(O)/C=C/c1ccccc1
AC50 [1]: inconclusive: 50 µM
outcome [4]: inactive
AC50 [5]: inconclusive: 46.1 µM
outcome [6]: inactive
AC50 [11]: inconclusive: 46.1 µM
outcome [11]: inactive
AC50 [3]: inconclusive: 46.1 µM
AC50 [7]: inconclusive: 46.1 µM

CCCCCCCCCCCCCCCCOS(=O)(=O)O
AC50 [1]: inconclusive: 25 µM
AC50 [4]: active: 79 µM
outcome [9]: inactive
AC50 [8]: active: 36.5 µM
outcome [3]: inactive
outcome [7]: inactive
outcome [13]: inactive

CC[C@H]1CC[C@H](NCc2cc3c(cc2OC)[C@H]2C[C@H]2C(=O)N3C)[C@H](c2ccccc2)N1
outcome [1]: inactive
AC50 [2]: inconclusive: 2.46 µM
AC50 [9]: active: 13.3 µM
AC50 [8]: inconclusive: 46.1 µM
AC50 [11]: inconclusive: 46.1 µM
AC50 [3]: inconclusive: 6.21 µM
outcome [7]: inactive

Clc1cc(Cl)c2c(c1)N=C1CCCCCN1C2
outcome [1]: inactive
AC50 [2]: inconclusive: 25 µM
AC50 [3]: inconclusive: 23 µM
AC50 [12]: active: 8.56 µM

CCC(=O)OC(C)(C)C1CC=C(C)CC1 (stereo unspecified)
AC50 [1]: inconclusive: 0.03 µM
AC50 [4]: inconclusive: 100 µM
outcome [11]: inactive
outcome [3]: inactive
outcome [7]: inactive

Cc1c(C)c2c(c(C)c1O)CCC(C)(COc1ccc(CC3SC(=O)NC3=O)cc1)O2 (stereo unspecified)
AC50 [1]: active: 67.9 µM and active: 76 µM
AC50 [14]: active: 76.3 µM
AC50 [4]: inconclusive: 10 µM
AC50 [5]: active: 74.4 µM and active: 37.1 µM
AC50 [6]: active: 73.8 µM
AC50 [9]: active: 28.1 µM and active: 26 µM
AC50 [8]: active: 66.4 µM and active: 34.8 µM
AC50 [11]: active: 56.1 µM and active: 34.1 µM
AC50 [3]: active: 87 µM
AC50 [7]: active: 76 µM and active: 35.5 µM

CN1CCN(Cc2cc(-c3ccc4[nH]c(=O)oc4c3)co2)[C@@H](c2ccc(F)cc2)C1
AC50 [1]: active: 10.1 µM
AC50 [2]: inconclusive: 80.4 µM
AC50 [11]: inconclusive: 40.6 µM
AC50 [3]: inconclusive: 40.6 µM
AC50 [7]: inconclusive: 40.6 µM
AC50 [12]: active: 25.6 µM

CN1CCN(c2ccccc2/C=C2\SCCN(c3ccc(Cl)c(Cl)c3)C2=O)CC1
AC50 [1]: inconclusive: 27.9 µM and inconclusive: 26.9 µM
AC50 [14]: active: 69.7 µM
AC50 [6]: active: 77.6 µM
AC50 [11]: active: 86 µM
AC50 [3]: active: 83.7 µM

CCCCCCOC(=O)CC(CC(=O)OCCCCCC)(OC(=O)CCC)C(=O)OCCCCCC
AC50 [1]: inconclusive: 50 µM
AC50 [2]: inconclusive: 13.2 µM and inconclusive: 13.9 µM
AC50 [12]: inconclusive: 115 µM
